Data as given in patent US8329741B2, “Substituted pyrrolidine compounds with central nervous system activity” (The Research Foundation of State University of New York, priority 2007, dated 2012).
At least one structure is not confirmed: it was looked up by name or label, or the drawing left a doubt.

How the values were obtained:
[1] = tested on: ckr mouse; test: Validation of ckr mouse model with antipsychotics (hyperactivity and circling); type: in vivo; details: concentrations relevant to human clinical use
From the text: The ckr mouse was serendipitously created as a result of a transgenic insertional mutation. […] The ckr mouse also appears to show reduced social interactions resembling the social withdrawal that is part of the constellation of negative symptoms of schizophrenia. The mouse also presents lateral ventricular enlargement, which may mirror neuropathological observations in schizophrenia.
The model has been further validated by testing risperidone, haloperidol and pimozide in the ckr mouse. The behavioral output was assayed by measuring the rate of hyperactivity and circling after administration. […] Based on the foregoing, the ckr mouse model is considered to be valid for evaluation of compounds for use in reducing the symptoms of neuropsychiatric disorders in mammals, including humans.

[2] = tested on: ckr mouse; details: cited from earlier work

SMILES | hyperactivity in ckr mice [1] | characteristic circling behavior of the mice [2]
O=c1[nH]c2ccccc2n1C1CCN(CCCC(c2ccc(F)cc2)c2ccc(F)cc2)CC1 [pimozide] | dose-dependent attenuation | 
CN1CCN(C2=Nc3cc(Cl)ccc3Nc3ccccc32)CC1 [clozapine] | dose-dependent attenuation | reduce
